# Data as given in the supplement of paper PMC8728848.
# The list shows a part of the results.
# B1: CLEC9a (Mus musculus), Q8BRU4 (protein)
# chain: MHAEEIYTSLQWDIPTSEASQKCQSPSKCSGAWCVVTMISCVVCMGLLATSIFLGIKFFQVSSLVLEQQERLIQQDTALVNLTQWQRKYTLEYCQALLQRSLHSGSDCSPCPHNWIQNGKSCYYVFERWEMWNISKKSCLKEGASLFQIDSKEEMEFISSIGKLKGGNKYWVGVFQDGISGSWFWEDGSSPLSDLLPAERQRSAGQICGYLKDSTLISDKCDSWKYFICEKKAFGSCI
# How the values were obtained:
# Assay in all cases: glycan array binding signal (z-score within array); higher = stronger binding
# Conditions in all cases: glycan notation: IUPAC condensed, linker removed
# Fuc(a1-2)Gal = target: Fuc(a1-2)Gal
# How it was run: (§1)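 Glycan array binding is given as a within-array Z-score, which can be read as non-binding when negative. The arrays, 3228 of them, came from the Consortium for Functional Glycomics database and were retained only where the protein sequence was available. Z-scores were averaged across arrays of the same protein sequence at different concentrations or buffers and across linkers.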
# Fuc(a1-2)Gal(b1-3)GalNAc = target: Fuc(a1-2)Gal(b1-3)GalNAc
# How it was run: as §1
# [1] = target: Fuc(a1-2)Gal(b1-3)GalNAc(a1-3)[Fuc(a1-2)]Gal(b1-4)Glc
# How it was run: as §1
# [2] = target: Fuc(a1-2)Gal(b1-3)GalNAc(a1-3)[Fuc(a1-2)]Gal(b1-4)GlcNAc
# How it was run: as §1
# [3] = target: Fuc(a1-2)Gal(b1-3)GalNAc(b1-3)Gal
# How it was run: as §1
# [4] = target: Fuc(a1-2)Gal(b1-3)GalNAc(b1-3)Gal(a1-4)Gal(b1-4)Glc
# How it was run: as §1
# [5] = target: Fuc(a1-2)Gal(b1-3)GalNAc(b1-4)[Neu5Ac(a2-3)]Gal(b1-4)Glc
# How it was run: as §1
# Fuc(a1-2)Gal(b1-3)GlcNAc = target: Fuc(a1-2)Gal(b1-3)GlcNAc
# How it was run: as §1
# [6] = target: Fuc(a1-2)Gal(b1-3)GlcNAc(b1-2)Man(a1-3)[Fuc(a1-2)Gal(b1-3)GlcNAc(b1-2)Man(a1-6)]Man(b1-4)GlcNAc(b1-4)GlcNAc
# How it was run: as §1
# [7] = target: Fuc(a1-2)Gal(b1-3)GlcNAc(b1-3)Gal(b1-4)Glc
# How it was run: as §1
# [8] = target: Fuc(a1-2)Gal(b1-3)GlcNAc(b1-3)[Fuc(a1-3)[Gal(b1-4)]GlcNAc(b1-6)]Gal(b1-4)Glc
# How it was run: as §1
# [9] = target: Fuc(a1-2)Gal(b1-3)[Fuc(a1-4)]GlcNAc
# How it was run: as §1
# [10] = target: Fuc(a1-2)Gal(b1-3)[Fuc(a1-4)]GlcNAc(b1-2)Man(a1-3)[Fuc(a1-2)Gal(b1-3)[Fuc(a1-4)]GlcNAc(b1-2)Man(a1-6)]Man(b1-4)GlcNAc(b1-4)GlcNAc
# How it was run: as §1
# [11] = target: Fuc(a1-2)Gal(b1-3)[Fuc(a1-4)]GlcNAc(b1-3)[Fuc(a1-3)[Gal(b1-4)]GlcNAc(b1-6)]Gal(b1-4)Glc
# How it was run: as §1
# [12] = target: Fuc(a1-2)Gal(b1-3)[Fuc(a1-4)]GlcNAc(b1-3)[Gal(b1-4)GlcNAc(b1-6)]Gal(b1-4)Glc
# How it was run: as §1
# Fuc(a1-2)Gal(b1-4)Glc = target: Fuc(a1-2)Gal(b1-4)Glc
# How it was run: as §1
# Fuc(a1-2)Gal(b1-4)Glc6S = target: Fuc(a1-2)Gal(b1-4)Glc6S
# How it was run: as §1
# Fuc(a1-2)Gal(b1-4)GlcNAc = target: Fuc(a1-2)Gal(b1-4)GlcNAc
# How it was run: as §1
# [13] = target: Fuc(a1-2)Gal(b1-4)GlcNAc(b1-2)Man(a1-3)[Fuc(a1-2)Gal(b1-4)GlcNAc(b1-2)Man(a1-6)]Man(b1-4)GlcNAc(b1-4)GlcNAc
# How it was run: as §1
# [14] = target: Fuc(a1-2)Gal(b1-4)GlcNAc(b1-3)Gal(b1-4)GlcNAc
# How it was run: as §1
# [15] = target: Fuc(a1-2)Gal(b1-4)GlcNAc(b1-3)Gal(b1-4)GlcNAc(b1-3)Gal(b1-4)GlcNAc
# How it was run: as §1
# [16] = target: Fuc(a1-2)Gal(b1-4)GlcNAc(b1-3)GalNAc
# How it was run: as §1
# [17] = target: Fuc(a1-2)Gal(b1-4)GlcNAc6S
# How it was run: as §1
# [18] = target: Fuc(a1-2)Gal(b1-4)[Fuc(a1-3)]GlcNAc
# How it was run: as §1
# [19] = target: Fuc(a1-2)Gal(b1-4)[Fuc(a1-3)]GlcNAc(b1-2)Man(a1-3)[Fuc(a1-2)Gal(b1-4)[Fuc(a1-3)]GlcNAc(b1-2)Man(a1-6)]Man(b1-4)GlcNAc(b1-4)GlcNAc
# How it was run: as §1
# [20] = target: Fuc(a1-2)Gal(b1-4)[Fuc(a1-3)]GlcNAc(b1-3)Gal(b1-4)[Fuc(a1-3)]GlcNAc
# How it was run: as §1
# [21] = target: Fuc(a1-2)Gal(b1-4)[Fuc(a1-3)]GlcNAc(b1-3)Gal(b1-4)[Fuc(a1-3)]GlcNAc(b1-3)Gal(b1-4)[Fuc(a1-3)]GlcNAc
# How it was run: as §1
# Fuc(a1-2)Gal6S(b1-4)Glc = target: Fuc(a1-2)Gal6S(b1-4)Glc
# How it was run: as §1
# [22] = target: Fuc(a1-2)Gal6S(b1-4)Glc6S
# How it was run: as §1
# [23] = target: Fuc(a1-2)Gal6S(b1-4)GlcNAc
# How it was run: as §1
# Fuc(a1-2)[Gal(a1-3)]Gal = target: Fuc(a1-2)[Gal(a1-3)]Gal
# How it was run: as §1
# [24] = target: Fuc(a1-2)[Gal(a1-3)]Gal(b1-3)GlcNAc
# How it was run: as §1
# [25] = target: Fuc(a1-2)[Gal(a1-3)]Gal(b1-3)GlcNAc(b1-2)Man(a1-3)[Fuc(a1-2)[Gal(a1-3)]Gal(b1-3)GlcNAc(b1-2)Man(a1-6)]Man(b1-4)GlcNAc(b1-4)GlcNAc
# How it was run: as §1
# [26] = target: Fuc(a1-2)[Gal(a1-3)]Gal(b1-4)Glc
# How it was run: as §1
# [27] = target: Fuc(a1-2)[Gal(a1-3)]Gal(b1-4)GlcNAc
# How it was run: as §1
# [28] = target: Fuc(a1-2)[Gal(a1-3)]Gal(b1-4)GlcNAc(b1-2)Man(a1-3)[Fuc(a1-2)[Gal(a1-3)]Gal(b1-4)GlcNAc(b1-2)Man(a1-6)]Man(b1-4)GlcNAc(b1-4)GlcNAc
# How it was run: as §1
# [29] = target: Fuc(a1-2)[Gal(a1-3)]Gal(b1-4)[Fuc(a1-3)]GlcNAc
# How it was run: as §1
binder,measurement,setting,value
B1,glycan array binding signal (z-score),Fuc(a1-2)Gal,-0.206
same,glycan array binding signal (z-score),Fuc(a1-2)Gal(b1-3)GalNAc,0.078
same,glycan array binding signal (z-score),[1],0.532
same,glycan array binding signal (z-score),[2],0.439
same,glycan array binding signal (z-score),[3],0.494
same,glycan array binding signal (z-score),[4],-1.01
same,glycan array binding signal (z-score),[5],0.535
same,glycan array binding signal (z-score),Fuc(a1-2)Gal(b1-3)GlcNAc,0.506
same,glycan array binding signal (z-score),[6],-0.158
same,glycan array binding signal (z-score),[7],0.895
same,glycan array binding signal (z-score),[8],-0.348
same,glycan array binding signal (z-score),[9],0.259
same,glycan array binding signal (z-score),[10],0.513
same,glycan array binding signal (z-score),[11],0.055
same,glycan array binding signal (z-score),[12],-0.641
same,glycan array binding signal (z-score),Fuc(a1-2)Gal(b1-4)Glc,1.19
same,glycan array binding signal (z-score),Fuc(a1-2)Gal(b1-4)Glc6S,0.626
same,glycan array binding signal (z-score),Fuc(a1-2)Gal(b1-4)GlcNAc,-0.52
same,glycan array binding signal (z-score),[13],-0.509
same,glycan array binding signal (z-score),[14],-0.267
same,glycan array binding signal (z-score),[15],-0.027
same,glycan array binding signal (z-score),[16],1.67
same,glycan array binding signal (z-score),[17],1.36
same,glycan array binding signal (z-score),[18],0.439
same,glycan array binding signal (z-score),[19],2.21
same,glycan array binding signal (z-score),[20],-0.11
same,glycan array binding signal (z-score),[21],0.048
same,glycan array binding signal (z-score),Fuc(a1-2)Gal6S(b1-4)Glc,0.249
same,glycan array binding signal (z-score),[22],-0.572
same,glycan array binding signal (z-score),[23],0.366
same,glycan array binding signal (z-score),Fuc(a1-2)[Gal(a1-3)]Gal,0.982
same,glycan array binding signal (z-score),[24],1.05
same,glycan array binding signal (z-score),[25],3.03
same,glycan array binding signal (z-score),[26],1.11
same,glycan array binding signal (z-score),[27],0.738
same,glycan array binding signal (z-score),[28],-0.072
same,glycan array binding signal (z-score),[29],-0.146

# As a short view, part of the list above.
binder,measurement,setting,value
B1,glycan array binding signal (z-score),[15],-0.027
same,glycan array binding signal (z-score),[16],1.67
same,glycan array binding signal (z-score),[17],1.36
same,glycan array binding signal (z-score),[18],0.439
same,glycan array binding signal (z-score),[19],2.21
same,glycan array binding signal (z-score),[20],-0.11
same,glycan array binding signal (z-score),[21],0.048
